According to US7935349:
Results are given in words; binding and its absence hold for the method and conditions named. For some assays here: Binding seen in cells or lysates may run through a third protein. Some entries that bind do so weakly or less than the wild type. Each block holds one substance with its values, some of them ahead of it.

By UniProt entry, the sequences of proteins in these tests, tags left out. Where a name states a change or a piece, a line headed by the entry shows the natural chain unless it says otherwise. Chains listed by the source or under a name are the forms on record and can include a tag or linker.
UniProt P61586: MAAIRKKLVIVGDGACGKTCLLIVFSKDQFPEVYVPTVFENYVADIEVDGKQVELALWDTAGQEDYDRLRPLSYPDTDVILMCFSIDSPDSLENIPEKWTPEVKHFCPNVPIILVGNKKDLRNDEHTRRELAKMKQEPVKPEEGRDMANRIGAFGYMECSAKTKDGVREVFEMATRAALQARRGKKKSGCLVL
myc-RhoAN19 (P61586, form named): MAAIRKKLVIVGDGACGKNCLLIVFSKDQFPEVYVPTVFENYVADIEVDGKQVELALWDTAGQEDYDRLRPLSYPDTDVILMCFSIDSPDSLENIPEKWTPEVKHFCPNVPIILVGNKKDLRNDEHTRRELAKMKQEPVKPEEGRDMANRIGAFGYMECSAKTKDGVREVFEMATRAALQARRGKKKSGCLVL
myc-RhoA63L (P61586, form named): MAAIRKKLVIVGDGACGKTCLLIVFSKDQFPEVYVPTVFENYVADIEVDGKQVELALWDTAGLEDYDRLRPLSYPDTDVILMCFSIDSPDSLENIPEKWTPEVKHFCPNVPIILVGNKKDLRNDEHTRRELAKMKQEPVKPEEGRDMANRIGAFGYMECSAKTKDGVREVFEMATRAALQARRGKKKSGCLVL
UniProt P70336: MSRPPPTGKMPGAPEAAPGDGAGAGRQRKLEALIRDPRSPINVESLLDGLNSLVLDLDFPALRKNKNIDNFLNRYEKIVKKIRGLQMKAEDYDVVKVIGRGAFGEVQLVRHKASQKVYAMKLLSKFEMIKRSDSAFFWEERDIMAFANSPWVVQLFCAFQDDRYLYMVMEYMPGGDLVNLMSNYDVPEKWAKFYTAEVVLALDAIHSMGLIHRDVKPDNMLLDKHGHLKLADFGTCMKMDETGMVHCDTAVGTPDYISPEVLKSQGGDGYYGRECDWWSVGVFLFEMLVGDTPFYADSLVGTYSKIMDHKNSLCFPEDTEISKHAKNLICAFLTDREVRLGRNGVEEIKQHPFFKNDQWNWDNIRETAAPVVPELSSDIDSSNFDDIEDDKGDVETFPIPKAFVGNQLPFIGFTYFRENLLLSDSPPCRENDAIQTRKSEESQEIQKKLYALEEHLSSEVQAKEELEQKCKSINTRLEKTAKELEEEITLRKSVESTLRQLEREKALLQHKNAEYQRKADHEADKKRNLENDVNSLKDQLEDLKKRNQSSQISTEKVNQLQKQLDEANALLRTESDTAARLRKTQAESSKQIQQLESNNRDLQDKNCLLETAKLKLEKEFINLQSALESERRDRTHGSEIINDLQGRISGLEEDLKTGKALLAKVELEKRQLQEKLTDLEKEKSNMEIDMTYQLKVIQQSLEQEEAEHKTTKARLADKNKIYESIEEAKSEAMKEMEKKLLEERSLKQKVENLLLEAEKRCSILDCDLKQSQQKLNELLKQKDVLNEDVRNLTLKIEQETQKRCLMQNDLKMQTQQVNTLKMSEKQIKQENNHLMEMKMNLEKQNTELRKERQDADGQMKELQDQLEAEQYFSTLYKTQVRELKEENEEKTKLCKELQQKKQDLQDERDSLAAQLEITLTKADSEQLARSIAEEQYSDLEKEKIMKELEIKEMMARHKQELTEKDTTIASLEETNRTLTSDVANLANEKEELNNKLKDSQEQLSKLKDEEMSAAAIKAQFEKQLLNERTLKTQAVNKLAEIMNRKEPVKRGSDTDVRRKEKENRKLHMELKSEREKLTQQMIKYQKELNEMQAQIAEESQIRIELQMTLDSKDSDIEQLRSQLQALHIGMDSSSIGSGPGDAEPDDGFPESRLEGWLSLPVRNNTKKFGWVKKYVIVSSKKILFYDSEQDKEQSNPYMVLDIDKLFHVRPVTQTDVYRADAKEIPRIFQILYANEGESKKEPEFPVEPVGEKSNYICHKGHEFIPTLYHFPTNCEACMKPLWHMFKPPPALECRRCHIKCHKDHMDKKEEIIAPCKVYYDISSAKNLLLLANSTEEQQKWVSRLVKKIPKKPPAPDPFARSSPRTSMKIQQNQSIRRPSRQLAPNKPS
UniProt Q62952: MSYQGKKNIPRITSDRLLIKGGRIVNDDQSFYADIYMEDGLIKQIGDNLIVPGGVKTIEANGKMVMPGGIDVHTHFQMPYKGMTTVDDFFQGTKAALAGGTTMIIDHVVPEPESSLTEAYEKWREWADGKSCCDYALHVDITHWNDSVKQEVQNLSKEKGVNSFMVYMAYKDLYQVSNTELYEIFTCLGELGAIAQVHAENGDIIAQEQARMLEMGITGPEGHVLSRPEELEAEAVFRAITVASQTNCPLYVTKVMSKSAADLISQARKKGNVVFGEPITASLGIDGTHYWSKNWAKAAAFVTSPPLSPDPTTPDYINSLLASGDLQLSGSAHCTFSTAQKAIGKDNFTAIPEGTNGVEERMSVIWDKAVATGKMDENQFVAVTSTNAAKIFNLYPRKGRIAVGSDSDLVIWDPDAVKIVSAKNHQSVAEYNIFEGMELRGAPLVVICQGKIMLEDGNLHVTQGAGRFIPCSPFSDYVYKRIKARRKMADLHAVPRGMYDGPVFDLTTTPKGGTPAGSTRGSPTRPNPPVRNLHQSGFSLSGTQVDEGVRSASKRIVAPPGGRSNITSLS

Assays:
myc-wild type RhoA [1] = target: myc-wild type RhoA (UniProt P61586); test: co-immunoprecipitation, myc-IP from co-transfected PC12 cells stimulated with Nogo-P4 peptide
myc-wild type RhoA [2] = target: myc-wild type RhoA (UniProt P61586); test: co-immunoprecipitation, myc-IP from co-transfected HEK293T cells (FIG. 2a)
myc-wild type RhoA [3] = target: myc-wild type RhoA (UniProt P61586); test: co-immunoprecipitation from HEK293T cells co-transfected with myc-RhoAWT, CRMP4-V5 and C4RIP-V5
myc-RhoAN19 [4] = target: myc-RhoAN19 (UniProt P61586); test: co-immunoprecipitation, myc-IP from co-transfected HEK293T cells (FIG. 2c)
myc-RhoAN19 [5] = target: myc-RhoAN19 (UniProt P61586); test: co-immunoprecipitation, myc-IP from co-transfected HEK293T cells
myc-RhoA63L [6] = target: myc-RhoA63L (UniProt P61586); test: as above
myc-RhoA63L [7] = target: myc-RhoA63L (UniProt P61586); test: co-immunoprecipitation, myc-IP from co-transfected HEK293T cells (FIG. 2b)
myc-wild type RhoA [8] = target: myc-wild type RhoA (UniProt P61586); test: co-immunoprecipitation, myc-IP from co-transfected HEK293T cells, anti-V5 blot
myc-Rho kinase = myc-Rho kinase (UniProt P70336); test: co-immunoprecipitation from HEK293T cells co-transfected with FLAG-RhoA63L, myc-ROCK and C4RIP-V5
myc-RhoA63L [9] = target: myc-RhoA63L (UniProt P61586); test: co-immunoprecipitation, myc-IP from HEK293T cells co-transfected with myc-RhoA63L
CRMP4b-V5 (rat) [10] = test: RhoA overlay (far western) on CRMP-V5 immunoprecipitated from 293T cells
CRMP4a-V5 (rat) [11] = target: CRMP4a-V5 (rat) (UniProt Q62952); test: as above
CRMP4b-V5 (rat) [12] = test: overlay of V5-immunoprecipitated CRMP-V5 with recombinant RhoA (FIG. 2d)
CRMP4a-V5 (rat) [13] = target: CRMP4a-V5 (rat) (UniProt Q62952); test: as above

binding (myc-wild type RhoA [1]): binds
binding (myc-wild type RhoA [2]): binds
binding (myc-wild type RhoA [3]): binds
binding (myc-RhoAN19 [4]): binds
binding (myc-RhoAN19 [5]): binds
binding (myc-RhoA63L [6]): binds
binding (myc-RhoA63L [7]): binds
binding (myc-wild type RhoA [8]): binds
Substance: CRMP4a-V5 (from UniProt Q62952 1-570)

binding (myc-Rho kinase): binds
Substance: FLAG-RhoA63L (from UniProt P61586 1-193)

binding (myc-RhoA63L [9]): binds
Substance: CRMP4ΔN-V5 (from UniProt Q62952 13-570)

binding (CRMP4b-V5 (rat) [10]): binds
binding (CRMP4a-V5 (rat) [11]): binds
binding (CRMP4b-V5 (rat) [12]): binds
binding (CRMP4a-V5 (rat) [13]): binds
Substance: recombinant RhoA (bacterially-purified, cleaved from GST) (from UniProt P61586 1-193)
